For test [1], the target named is T1, His-GlnZΔloop (A. brasilense GlnZ with a deletion of the T-loop, GlnZΔ42–54) (Azospirillum brasilense) (UniProt P70731).
T1 sequence: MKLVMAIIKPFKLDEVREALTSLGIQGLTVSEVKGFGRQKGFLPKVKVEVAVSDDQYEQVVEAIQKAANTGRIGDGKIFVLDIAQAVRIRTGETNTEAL
Put plainly: pull-down; as a2 but with 1 mM ATP and 1 mM 2-OG combined (5 mM MgCl2); both purified.

Protein sequences, listed by entry. Tags and fused reporters are not part of them.
UniProt P0A9Z1: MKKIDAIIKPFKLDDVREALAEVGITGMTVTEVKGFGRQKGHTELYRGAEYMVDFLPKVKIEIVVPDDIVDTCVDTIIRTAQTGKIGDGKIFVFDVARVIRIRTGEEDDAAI

Test [2] addresses T1, His-GlnZΔloop (A. brasilense GlnZ with a deletion of the T-loop, GlnZΔ42–54) (Azospirillum brasilense). The experiment in a line: pull-down; His-PII on Ni2+ magnetic beads, untagged UmpH; 50 mM Tris-HCl pH 8.0, 0.1 M NaCl, 5 mM MgCl2, 10% glycerol, 20 mM imidazole; room temperature; without nucleotides or with ATP or ADP (effectors as indicated); SDS-PAGE, Coomassie; both purified.

For test [3], the target named is His-GlnZ from Azospirillum brasilense (Azospirillum brasilense) (UniProt P70731). The test is described as above.
Test [4] deals with His-GlnB (E. coli PII signaling protein GlnB, N-terminal His tag) (E. coli) (UniProt P0A9Z1). Described as above.

These are yes or no findings as the source states them, for the method shown. Some entries that bind do so weakly or less than the wild type. Sequences can lack the tags named with a protein.

B1: UmpH (ribonucleotide monophosphatase), untagged recombinant (enzyme, UniProt P0AF24 1-250)
chain: MTIKNVICDIDGVLMHDNVAVPGAAEFLHGIMDKGLPLVLLTNYPSQTGQDLANRFATAGVDVPDSVFYTSAMATADFLRRQEGKKAYVVGEGALIHELYKAGFTITDVNPDFVIVGETRSYNWDMMHKAAYFVANGARFIATNPDTHGRGFYPACGALCAGIEKISGRKPFYVGKPSPWIIRAALNKMQAHSEETVIVGDNLRTDILAGFQAGLETILVLSGVSSLDDIDSMPFRPSWIYPSVAEIDVI
B1: the binding entry in test [1] is “binds”; in test [2], “binds”; in test [3], “binds”; in test [4], “no binding”.

The values are drawn from publication PMC11617674, “The activity of the ribonucleotide monophosphatase UmpH is controlled by interaction with the GlnK signaling protein in Escherichia coli” (The Journal of Biological Chemistry, 2024).
